Assay results as given in paper PMC3324470.
Results are given in words; binding and its absence hold for the method and conditions named. Some results given as binding are weak or reduced against the parent protein; the word gives no strength.

T1: GAMETOPHYTE … 1 (GAF1/AtRPP30) (Arabidopsis thaliana) (UniProt F4JXF1)
T1 sequence: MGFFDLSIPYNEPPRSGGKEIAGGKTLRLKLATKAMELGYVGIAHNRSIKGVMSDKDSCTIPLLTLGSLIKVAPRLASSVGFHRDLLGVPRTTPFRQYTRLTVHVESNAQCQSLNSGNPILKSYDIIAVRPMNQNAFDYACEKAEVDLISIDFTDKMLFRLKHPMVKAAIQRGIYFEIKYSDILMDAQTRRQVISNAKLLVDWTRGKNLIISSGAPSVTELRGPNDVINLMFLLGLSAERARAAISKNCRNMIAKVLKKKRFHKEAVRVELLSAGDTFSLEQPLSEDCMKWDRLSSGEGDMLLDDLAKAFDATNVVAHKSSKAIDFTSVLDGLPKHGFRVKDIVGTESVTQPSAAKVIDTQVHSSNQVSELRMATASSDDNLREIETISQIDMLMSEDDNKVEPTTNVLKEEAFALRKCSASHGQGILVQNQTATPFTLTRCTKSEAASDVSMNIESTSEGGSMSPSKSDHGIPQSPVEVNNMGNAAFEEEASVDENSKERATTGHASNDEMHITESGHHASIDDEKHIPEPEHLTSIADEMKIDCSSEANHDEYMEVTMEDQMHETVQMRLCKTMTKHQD


molecular target: T1, GAMETOPHYTE … 1 (GAF1/AtRPP30) (Arabidopsis thaliana); experiment: two-hybrid; pGADT7 and pGBKT7 constructs co-transformed in pairs into yeast AH109; cells adjusted to OD600=0.3, growth on SD/-Trp-Leu-His-Ade plates for 5 or 12 days at 28°C (SD/-Trp-Leu for 3 days as control)

Row | binding | Binder
1 | no binding | AtPOP1 (Arabidopsis homologue of RNases P/MRP subunit POP1) (protein, UniProt F4IL30 1-826) MATTANGNSKKRDGGLSSLAPRKINVQKFSEARAPELESLHSIVSERLNKDFRSKRNKRRRTNSYNNQPAKKRNIKRQKSQSLIGQVSGGDHEVKITRRVKRRMELKGNPETGFCTSGDGTKRLRTHVWHAKRFTMTKLWGFHLPLGLHGRGRGSRDVLKQSRQGVLVHDASYHIAVQLEGPEGSLLSILNMLLEPSPSSHSKEVFDSILTGGSYENAMLYHVEPPVSQAIAPVTYMWRPSKIPKRRNEEKGGDGIGTDLPVSDKDHEDFRKLWVWIHASSFSEGYAILKVACQKQMNETGVSVDCFSLEGQLAKLEIFGSKASHLLQKTLHPATSTSENPSILRKCSMEKAEVKNVADLYTEENVSSGAILAQFVIDPRLILTSPHDDRTVSVETIKTEPTESVETTTNTEAETFPEVFNCLWDANSELTPPEEENMLCWEKHQSRMDSLCLDDPAAEVPKVSSRPRSSRSCPLLLLKHKKLGNAPTGWSLILPLSWIKVFWNAFVSKGAHAIGQREKRWVSCDDGLPFFPSDFPDCKAYSSFTLSEAADLEEKAQRRPPAIRPFRIPIPPPWNSIHVTRSIGEGSNQKFSSNGRSVVEISSYGGNLFDGIVARTSDSLTTFLQTFTSDNMLLFPHNTSKPSTDLMMTLQEDDKKVRAQIHQSSNKLCLVRVLLHAFKEGSFEEGAVVCAPTLADISLLKSSCSEGEDGRVTIPQSSVSSYFQEQPCGTWELNVPEDTLTEQSHRWPIGFVTTGFVRGSKKPAAEAFCDAVLLGRLRDEQWRDKDVRRRKKQIYVLVRNLRSSAFRLALATIVLEQQDYCDVHCF
2 | no binding | AtPOP4 (Arabidopsis homologue of RNases P/MRP subunit POP4) (protein, UniProt Q9ZW76 1-296) MGTETVVHDQARWAMAAMERRLAVAKAQLLQQQQQKNEKDKKGTSDVDVSMKESHQADSLPTPSKTSIKKVDPKDDDSVAYTKLSHPVDENLLATNVKFSSAKGTIVDKVLHNLLRSGDSAQKYLQGTKSVKLDNYILLDNFVQSRSSASGSKKASQKDSKRSKSRMSMKRLKKSGALHIPKDLQKFDLFKPMHGMWESYMMKLIKVTGKIQLSLTLLSADLHGAFMFVAECKIASFTGVQGIMVRETSETFGIITRDDKFRVVPKKLSVFIIQLDCWKITLHGDKFISRDNIVQR
3 | binds | AtPOP5 (Arabidopsis homologue of RNases P/MRP subunit POP5) (protein, UniProt Q6AWV1 1-151) MVGFKNRYMLMEVFLDPDKDLLGEGTPIILTQFNLSKAIKDSILVNFGECGLGSSLGSFQVKYVNPITKLCIVRSSREEHRQVWLAITLVKSIGNCPVILNLLDISGCIRACRDTALKCDKEKFEQCSKSLSEEEIRQMNTSLEKIKLLEN
